Test results reported in US20210379094A1, “METHOD FOR REDUCING DRUG-INDUCED NEPHROTOXICITY” (Yissum Research Development Company of the Hebrew …, priority 2019, published 2021).
Some results were stated once for a whole list of compounds, not compound by compound.

Tested on: HK-2 organoids
Experiment: Real-time oxygen uptake / time to onset in perfused organoid bioreactor
Assay type: cell-based, human
Conditions: increasing concentrations, dose-dependent decrease
Description: Polydimethylsiloxane (PDMS) microwell inserts were sterilized with 70% EtOH and 30-min exposure to UV light prior to cell seeding. Kidney cells were trypsinized, counted, and centrifuged at 300×g for 5 min at 4° C. […] Then, 1.35 μl of Matrigel® suspension containing cells and oxygen-sensing beads was seeded in each well using […] M P10M (Gilson, UK). The inoculated microwell insert was then incubated for 30 min at 37° C. to polymerize the gel. Following polymerization, the insert was immersed in 3 ml of cell culture medium and incubated overnight at 37° C. prior to being sealed in the bioreactor housing. Bioreactors were then placed in a climate control chamber on an IX81 fluorescence microscope (Olympus, Japan). Bioreactors were continuously perfused with cell culture medium noted above supplemented with 10 mM HEPES and 1% DMSO at a flow rate of 5 μL/min. Drug induction started upon metabolic stabilization. Stabilization was assessed by daily measurements of oxygen and metabolites.
Real-time oxygen measurements were performed optically using on-chip lifetime-based luminescence quenching (LBLQ). […]
Bioreactors were perfused with different concentrations of compounds dissolved in culture medium. […] TC50 concentrations were determined using MATLAB by sigmoidal curve fitting. […] Time to onset was analyzed by MATLAB based on LPF and trend assessment.

## Gentamicin
  Time to onset (TTO) of response: 0.2 to 14 h
